Data from patent US20240043493 (published 2024).

Experiment: general procedure: Fmoc solid-phase peptide synthesis; pre-loaded H-Asn(Trt)-HMBP-ChemMatrix or H-Gly-HMBP-ChemMatrix; DIC/6-Cl-HOBt or DIC/OxymaPure
Conditions: analytical rp-HPLC, several disulfide bridges, sequence written open
[1] = whole synthesis, scale of the general procedure 0.1 mmol

Substance	final HPLC purity [1] [%]	final HPLC purity (lipidation step) [%]
AFVNQHLCGSHLVEALYLVCGERGFFYTPRTEEGPRRGIVEQCCHSICSLEQLENYCN	>95	
FVK(C20)QHLCGSHLVEALYLVCGERGFFYTPRTEEGPRRGIVEQCCHSICSLEQLENYCN		>95
FVKQHLCGSHLVEALYLVCGERGFFYTPRTEEGPRRGIVEQCCHSICSLEQLENYCN	>98	
FVNQHLCGSHLVEALYLVCGERGFFYTK(C20)PTEEGPRRGIVEQCCHSICSLEQLENYCN		>98
FVNQHLCGSHLVEALYLVCGERGFFYTKPTEEGPRRGIVEQCCHSICSLEQLENYCN	>95	
FVNQHLCGSHLVEALYLVCGERGFFYTPRTEEGPK(C20)RGIVEQCCHSICSLEQLENYCN		>95
FVNQHLCGSHLVEALYLVCGERGFFYTPRTEEGPKRGIVEQCCHSICSLEQLENYCN	>98	
FVNQHLCGSHLVEALYLVCGERGFFYTPRTEEGPRRGIVEQCCHSICSLKQLENYCN	>95	

End groups of sequences in plain letters are not given here.
